Laboratory results taken from patent US20210395311A1 (New York University, priority 2019, published 2021).
Ends that are not written are not given here.

Assay: general procedure: Fmoc solid-phase peptide synthesis; Fmoc-Val-PEG Resin; HBTU, HOBt and NMM
Settings: whole synthesis, RP-HPLC profile, scale of the general procedure 2.4 g resin

Sequence: GMMCVTHCNG (cysteine pairing not given here)
- final HPLC purity: 99%
